Results are given in words; binding and its absence hold for the method and conditions named.
Tests used:
[1] = target: Cus2 D204K fused to the GAL4 DNA-binding domain (S. cerevisiae) (UniProt P53830); assay: two-hybrid; Cus2 proteins fused to the GAL4 DNA-binding domain (pAS2) against Hsh155 fused to the GAL4 activation domain (pACT) in yeast strain y190; GAL/UAS-HIS3 reporter, growth on SCD -Leu -Trp -His with 25 mM 3-AT
[2] = target: Cus2 F235A (F253 in the legends) fused to the GAL4 DNA-binding domain (S. cerevisiae) (UniProt P53830); assay: as above

The chains behind the UniProt entries cited, without tags or fusion partners. Where a name states a change or a piece, a line headed by the entry shows the natural chain unless it says otherwise.
UniProt P53830: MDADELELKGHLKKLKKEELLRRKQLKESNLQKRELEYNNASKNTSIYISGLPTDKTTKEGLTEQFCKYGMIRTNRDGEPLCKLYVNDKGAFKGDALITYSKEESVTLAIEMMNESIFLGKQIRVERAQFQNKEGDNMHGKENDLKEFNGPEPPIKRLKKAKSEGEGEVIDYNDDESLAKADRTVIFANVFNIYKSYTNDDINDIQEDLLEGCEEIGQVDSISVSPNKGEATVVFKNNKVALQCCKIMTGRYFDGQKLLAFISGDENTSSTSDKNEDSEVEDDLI
UniProt P49955: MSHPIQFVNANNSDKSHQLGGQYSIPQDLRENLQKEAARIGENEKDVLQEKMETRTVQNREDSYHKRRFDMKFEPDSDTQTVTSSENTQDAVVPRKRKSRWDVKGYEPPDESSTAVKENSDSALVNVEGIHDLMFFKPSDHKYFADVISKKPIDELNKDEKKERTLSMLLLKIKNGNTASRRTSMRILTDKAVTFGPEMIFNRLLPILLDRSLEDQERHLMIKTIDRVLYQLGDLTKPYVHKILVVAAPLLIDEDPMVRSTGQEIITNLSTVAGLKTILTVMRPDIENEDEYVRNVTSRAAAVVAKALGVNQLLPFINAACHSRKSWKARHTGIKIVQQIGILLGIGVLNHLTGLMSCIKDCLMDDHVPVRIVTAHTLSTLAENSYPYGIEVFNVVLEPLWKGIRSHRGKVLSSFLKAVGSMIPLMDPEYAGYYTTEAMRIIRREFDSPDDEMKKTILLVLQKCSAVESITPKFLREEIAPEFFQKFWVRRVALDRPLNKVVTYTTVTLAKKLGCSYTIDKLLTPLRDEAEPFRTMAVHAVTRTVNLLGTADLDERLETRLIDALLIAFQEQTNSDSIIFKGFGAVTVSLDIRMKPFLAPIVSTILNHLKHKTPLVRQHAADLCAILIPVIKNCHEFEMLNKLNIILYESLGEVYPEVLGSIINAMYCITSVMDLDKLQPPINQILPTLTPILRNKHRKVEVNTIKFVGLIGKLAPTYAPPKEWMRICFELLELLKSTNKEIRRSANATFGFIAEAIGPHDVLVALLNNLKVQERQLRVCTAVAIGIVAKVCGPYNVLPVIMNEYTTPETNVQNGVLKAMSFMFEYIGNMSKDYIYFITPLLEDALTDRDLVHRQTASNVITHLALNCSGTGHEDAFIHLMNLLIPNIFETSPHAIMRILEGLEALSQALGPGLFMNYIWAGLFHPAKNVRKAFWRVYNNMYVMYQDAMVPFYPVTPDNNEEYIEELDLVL

binding [1]: no binding
binding [2]: no binding
Substance: Hsh155, full length, wild type, fused to the GAL4 activation domain (from UniProt P49955 1-971)

Source: article PMC6633205, “Cus2 enforces the first ATP-dependent step of splicing by binding to yeast SF3b1 through a UHM–ULM interaction” (RNA, 2019)
